From PubChem BioAssay AID2685 (National Center for Advancing Translational Sciences (NCATS), 2010)
The list shows a part of the results. The main result of the screen is listed elsewhere. These columns were measured beside it and carry no call. Most of these compounds were active or inconclusive in the main read-out, so they are no random draw. Potencies come from curve fits of mixed quality, noted in brackets.

Test: qHTS Assay for Lipid Storage Modulators in Drosophila S3 Cells;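 as to cell number change: cells counted by Cell Tracker Red CMTPX staining in the red channel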
Details: BODIPY lipid droplet fluorescence, 18-24 h; for cell number change: measured here: cell count max response, cells fed with added oleic acid
In short: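 Drosophila S3 cells loaded with oleic acid (400 uM, as added) and compounds at several concentrations; lipid droplets imaged by 488-nm laser-scanning cytometry, 500–530 nm intensity and object ratio to cell channel. Percent activity normalized to 20 uM Triacsin C.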

[1] = measured here: cell number channel AC50, cells fed with added oleic acid
[2] = measured here: lipid fluorescence (Fed channel) AC50, cells fed with added oleic acid

Structure (SMILES)	cell number change	AC50 [1]	AC50 [2]
COC(=O)c1cn(C(=O)c2cccc3ccccc23)c2ccccc12	39.7%	29.1 µM [rising, single point]	–
COC(=O)C1=C(c2ccc(OC)c(OC)c2)C[C@@H]2CC[C@H]1N2C(=O)NCCc1ccccc1	15.6%	–	32.6 µM [rising, single point]
CC1CCc2cc(F)cc3c(=O)c(C(=O)O)cn1c23 (stereo unspecified)	–	29.1 µM [falling, single point]	–
Cc1ccc(S(=O)(=O)Nc2cc(C(=O)N3CCC4(CC3)OCCO4)ccc2N2CCCCC2)cc1	24.9%	–	–
CC(C)OP(=O)(c1ccc(N(C)C)cc1)C(O)c1ccc(Br)cc1 (stereo unspecified)	–	0.58 µM [rising, full curve]	–
COC(=O)C(O)(c1ccc(NC(=S)NC(=O)c2ccc(Cl)cc2Cl)cc1)C(F)(F)F (stereo unspecified)	-51.3%	6.51 µM [rising, partial curve, poor fit]	6.51 µM [rising, partial curve, poor fit]
Cc1nc2ccc(P(=O)(O)O)cc2s1	-16.9%	–	5.17 µM [falling, full curve]
CC1=NN(c2ccccc2)C(=O)/C1=C/c1c(O)[nH]c(=S)[nH]c1=O	5.72%	–	–
O=c1oc2ccccc2c(O)c1[C@H]1c2ccc(O)cc2Oc2c1c(=O)oc1ccccc21	-4.62%	–	29.1 µM [rising, single point]
CCOc1ccccc1CNS(=O)(=O)c1ccc2c(c1)oc(=O)n2C	–	0.461 µM [falling, single point]	–
Cc1ccc(/C=C2\C(=O)NC(=S)N(c3ccccc3F)C2=O)s1	-29.2%	–	16.4 µM [falling, single point]
Cc1ccc(S(=O)(=O)NCCC(=O)Nc2ccc(Cl)cc2C(=O)c2ccccc2)cc1	-16.1%	–	25.9 µM [falling, single point]
O=[N+]([O-])c1cnc[nH]1	-13.9%	–	–
COc1ccc(C(=O)O/N=C(/C(N)=O)P(=O)(OC(C)C)OC(C)C)cc1	-30.8%	11.6 µM [falling, partial curve]	10.3 µM [falling, partial curve]
Cc1ccc2[nH]c(C)c(CCNCc3ccco3)c2c1	-19.4%	–	–
CC(Cc1ccccc1Sc1ccccc1)N(C)C (stereo unspecified)	48.6%	0.58 µM [rising, full curve]	6.51 µM [rising, partial curve]
COc1ccccc1OCC#CCN1CCCCCC1	-36.5%	–	–
COc1cc2c(cc1/C=C/[N+](=O)[O-])OCO2	-41%	18.4 µM [falling, single point]	16.4 µM [falling, single point]
O=c1c2ccccc2nc(/C=C/c2ccc([N+](=O)[O-])o2)n1-c1ccc(O)cc1	3.01%	0.103 µM [falling, full curve, poor fit]	–

Structure (SMILES)	cell number change	AC50 [1]	AC50 [2]
COc1ccccc1N1C(=O)NC(=O)/C(=C/c2ccc3c(c2)Cc2ccccc2-3)C1=O	-50%	3.26 µM [falling, full curve]	23.1 µM [rising, single point]
COC(=O)C1=C(N)OC(C)=C(C(C)=O)C12C(=O)N(C)c1ccccc12 (stereo unspecified)	-2.07%	–	–
CCN(CC)C(=O)N[C@H]1C[C@@H]2c3cccc4[nH]cc(c34)C[C@H]2N(C)C1	15.7%	–	9.2 µM [rising, partial curve, poor fit]
CN1/C(=C\C=C\C2=[N+](C)c3ccc4ccccc4c3C2(C)C)C(C)(C)c2ccccc21	-98.6%	10.3 µM [falling, partial curve]	0.291 µM [falling, full curve, poor fit]
CCc1c(C)nc(N)nc1N1N=C1SCCOc1ccccc1	0.308%	–	–
NCCc1ccc(OCc2ccccc2)c(OCc2ccccc2)c1	-75.5%	16.4 µM [falling, partial curve]	–
O=C(/C=C/c1ccccc1)NCCc1cnc[nH]1	-26.6%	–	7.31 µM [falling, partial curve, poor fit]
CCC(c1ccc(C)cc1)N1C(=O)C2C3CCC(O3)C2C1=O (stereo unspecified)	8.63%	–	4.11 µM [rising, single point]
CCn1c(=O)n(CC(=O)N2CCC3(CC2)OCCO3)c(=O)c2ccccc21	-5.13%	–	29.1 µM [falling, single point]
O=c1cccc2n1CC1CC2CN(S(=O)(=O)c2ccc(F)cc2)C1 (stereo unspecified)	89.2%	–	–
CCOc1ccc(NC(=O)C2C3c4ccccc4C(c4ccccc43)C2C(=O)O)cc1 (stereo unspecified)	17.4%	–	0.731 µM [rising, full curve, poor fit]
O=C1/C(=C\c2ccccc2)C2OCC=C3CN4CCC56c7ccccc7N1C5C2C3CC46 (stereo unspecified)	-0.525%	–	6.51 µM [rising, full curve]
C/C(=N\NC(=O)c1ccccc1)c1c(O)n(C2CCCCC2)c(=O)[nH]c1=O	–	–	0.00517 µM [rising, full curve, poor fit]
O=c1[nH]c(=S)[nH]c(O)c1N=Nc1ccc(OC(F)F)cc1	1.9%	–	–
O=C(O)c1ccc2c(c1)C1C(Cl)C(Sc3ccccc3[N+](=O)[O-])CC1C(c1cccc([N+](=O)[O-])c1)N2 (stereo unspecified)	-31.7%	3.66 µM [falling, full curve, poor fit]	–
CC1(C)C(c2ccccc2)=NC(c2cccnc2)=[N+]1[O-]	24.7%	0.326 µM [rising, full curve, poor fit]	1.16 µM [rising, single point]
CCOc1ccccc1OCC(=O)Nc1ccc(Cl)cc1C(=O)c1ccccc1	6.9%	1.16 µM [rising, partial curve, poor fit]	1.84 µM [rising, partial curve, poor fit]
C=CCn1c(O)c(C=NCCN2CCNCC2)c(=O)[nH]c1=O	-56.5%	29.1 µM [falling, single point]	0.82 µM [falling, partial curve]
CC12CN3CC(c4ccccc4)(CN(C1)C31CCCCC1)C2=O	–	–	0.651 µM [falling, full curve, poor fit]

Of the compounds above, 2 contain an aryl thioether with sulfur outside any ring.
Structure (SMILES)	cell number change	AC50 [1]	AC50 [2]
CC(Cc1ccccc1Sc1ccccc1)N(C)C (stereo unspecified)	48.6%	0.58 µM [rising, full curve]	6.51 µM [rising, partial curve]
O=C(O)c1ccc2c(c1)C1C(Cl)C(Sc3ccccc3[N+](=O)[O-])CC1C(c1cccc([N+](=O)[O-])c1)N2 (stereo unspecified)	-31.7%	3.66 µM [falling, full curve, poor fit]	–
